Values of other authors in patent publication US6464987B1, “Pharmaceutical compositions capable of being gelled” (UCB, S.A., priority 1998, dated 2002).
At least one structure is not confirmed: it was looked up by name or label, or the drawing left a doubt.

Test system: humans
Conditions: PLA-GA implants or PLA-GA microparticles

## CC(C)C[C@H](NC(=O)[C@@H](Cc1ccc2ccccc2c1)NC(=O)[C@H](Cc1ccc(O)cc1)NC(=O)[C@H](CO)NC(=O)[C@H](Cc1c[nH]c2ccccc12)NC(=O)[C@H](Cc1c[nH]cn1)NC(=O)[C@@H]1CCC(=O)N1)C(=O)N[C@@H](CCCNC(=N)N)C(=O)N1CCC[C@H]1C(=O)NCC(N)=O [nafarelin]
  level of testosterone in the blood: very significant and lasting decrease
